Experimental data from PMC6702741.
Results are given in words; binding and its absence hold for the method and conditions named. Binding seen in cells or lysates may run through a third protein. Some entries that bind do so weakly or less than the wild type.

The chains behind the UniProt entries cited, without tags or fusion partners.
UniProt P51608: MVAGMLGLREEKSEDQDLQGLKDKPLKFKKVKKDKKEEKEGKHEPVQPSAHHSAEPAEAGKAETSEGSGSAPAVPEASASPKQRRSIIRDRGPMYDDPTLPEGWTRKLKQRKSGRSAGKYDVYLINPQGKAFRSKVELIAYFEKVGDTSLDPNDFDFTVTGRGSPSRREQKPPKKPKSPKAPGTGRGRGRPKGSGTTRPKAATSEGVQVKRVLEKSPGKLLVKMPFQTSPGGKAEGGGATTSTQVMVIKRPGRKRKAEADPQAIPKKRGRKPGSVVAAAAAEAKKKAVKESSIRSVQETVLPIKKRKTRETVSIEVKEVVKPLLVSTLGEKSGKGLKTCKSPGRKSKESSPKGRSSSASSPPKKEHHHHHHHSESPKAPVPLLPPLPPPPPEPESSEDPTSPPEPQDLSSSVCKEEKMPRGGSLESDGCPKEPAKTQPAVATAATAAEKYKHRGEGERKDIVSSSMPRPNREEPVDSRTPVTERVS

Target: Methyl CpG-binding protein 2 (MeCP2) (human (endogenous in glioma cells)) (UniProt P51608)
Assay: co-IP; endogenous proteins in glioma cells; complexes precipitated with protein A/G agarose, western blot with anti-MeCP2 and anti-SUV39H1; done in both directions

B1: suppressor of variegation 39H1 (SUV39H1) (protein, UniProt O43463 1-412)
chain: MAENLKGCSVCCKSSWNQLQDLCRLAKLSCPALGISKRNLYDFEVEYLCDYKKIREQEYYLVKWRGYPDSESTWEPRQNLKCVRILKQFHKDLERELLRRHHRSKTPRHLDPSLANYLVQKAKQRRALRRWEQELNAKRSHLGRITVENEVDLDGPPRAFVYINEYRVGEGITLNQVAVGCECQDCLWAPTGGCCPGASLHKFAYNDQGQVRLRAGLPIYECNSRCRCGYDCPNRVVQKGIRYDLCIFRTDDGRGWGVRTLEKIRKNSFVMEYVGEIITSEEAERRGQIYDRQGATYLFDLDYVEDVYTVDAAYYGNISHFVNHSCDPNLQVYNVFIDNLDERLPRIAFFATRTIRAGEELTFDYNMQVDPVDMESTRMDSNFGLAGLPGSPKKRVRIECKCGTESCRKYLF
  binding: binds
